These are yes or no findings as the source states them, for the method shown. In cells and extracts the contact can be indirect. Binding calls can cover weak binding; strength is not graded here. Where a sequence is shown, tags or fusion partners need not be part of it.
Molecular target: GST-Rat-Dcc (Dcc cytoplasmic domain only) (rat)
Assay: pull-down; 3 μg GST or GST fusion protein on glutathione-agarose beads incubated with 25-40 μl in vitro translated protein(s) for 2 hours at 4°C in 0.1% IPH buffer (50 mM tris pH 8.0, 50 to 150 mM NaCl, 5 mM EDTA, 0.01% BSA, 0.1% NP40); Western blot; only the target purified

- binding: binds
B1: Rat Git1^WT-FLAG, in vitro translated (protein, UniProt Q9Z272 1-770)
chain: MSRKGPRAEVCADCSAPDPGWASISRGVLVCDECCSVHRSLGRHISIVKHLRHSAWPPTLLQMVHTLASNGANSIWEHSLLDPAQVQSGRRKANPQDKVHPIKSEFIRAKYQMLAFVHKLPCRDDDGVTAKDLSKQLHSSVRTGNLETCLRLLSLGAQANFFHPEKGTTPLHVAAKAGQTLQAELLVVYGADPGSPDVNGRTPIDYARQAGHHELAERLVECQYELTDRLAFYLCGRKPDHKNGHYIIPQMADRSRQKCMSQSLDLSELAKAAKKKLQALSNRLFEELAMDVYDEVDRRENDAVWLATQNHSTLVTERSAVPFLPVNPEYSATRNQGRQKLARFNAREFATLIIDILSEAKRRQQGKSLSSPTDNLELSARNQSDLDDQHDYDSVASDEDTDQEPLPSAGATRNNRARSMDSSDLSDGAVTLQEYLELKKALATSEAKVQQLMKVNSSLSDELRKLQREIHKLQAENLQLRQPPGPVPVPSLPSERAEHTLMGPGGSTHRRDRQAFSMYEPGSALKPFGGAPGDELATRLQPFHSTELEDDAIYSVHVPAGLYRIRKGVSASSVTFTPSSPLLSSSQEGSRHASKLSRHGSGAESDYENTQSGEPLLGLEGKRFLELSKEDELHAELESLDGDPDPGLPSTEDVILKTEQVTKNIQELLRAAQEFKHDSFVPCSEKIHLAVTEMASLFPKRPALEPVRSSLRLLNASAYRLQSECRKTVPPEPGAPVDFQLLTQQVIQCAYDIAKAAKQLVTITTREKKQ

Reference: paper PMC10181192
